Experimental data: US7038022, “Multimeric forms of members of the steroid/thyroid superfamily of receptors” (The Salk Institute for Biological Studies)
No constants are given. Whether binding was seen depends on the method and setting. For some assays here: In cells and extracts the contact can be indirect. Some binding calls cover weakened binding; strength is not graded here.

Key:
[1] = biological target: T1, thyroid receptor-beta (TRβ), synthesized in vitro (UniProt P10828); test: co-immunoprecipitation with RXR antiserum
T1 sequence (looked up): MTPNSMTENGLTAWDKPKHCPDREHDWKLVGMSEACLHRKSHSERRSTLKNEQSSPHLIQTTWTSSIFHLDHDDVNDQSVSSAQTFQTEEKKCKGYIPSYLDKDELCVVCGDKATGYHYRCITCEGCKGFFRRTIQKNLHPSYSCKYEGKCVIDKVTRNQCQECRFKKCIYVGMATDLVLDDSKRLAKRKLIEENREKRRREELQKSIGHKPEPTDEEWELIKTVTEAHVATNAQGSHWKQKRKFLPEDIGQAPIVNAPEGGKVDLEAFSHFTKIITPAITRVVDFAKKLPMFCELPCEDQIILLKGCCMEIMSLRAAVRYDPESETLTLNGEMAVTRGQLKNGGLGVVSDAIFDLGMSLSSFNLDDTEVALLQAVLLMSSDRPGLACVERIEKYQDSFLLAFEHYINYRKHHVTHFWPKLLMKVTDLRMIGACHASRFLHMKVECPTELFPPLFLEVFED

[2] = biological target: T2, vitamin D receptor (VDR), synthesized in vitro (UniProt P11473); test: co-immunoprecipitation with RXR antiserum
T2 sequence (looked up): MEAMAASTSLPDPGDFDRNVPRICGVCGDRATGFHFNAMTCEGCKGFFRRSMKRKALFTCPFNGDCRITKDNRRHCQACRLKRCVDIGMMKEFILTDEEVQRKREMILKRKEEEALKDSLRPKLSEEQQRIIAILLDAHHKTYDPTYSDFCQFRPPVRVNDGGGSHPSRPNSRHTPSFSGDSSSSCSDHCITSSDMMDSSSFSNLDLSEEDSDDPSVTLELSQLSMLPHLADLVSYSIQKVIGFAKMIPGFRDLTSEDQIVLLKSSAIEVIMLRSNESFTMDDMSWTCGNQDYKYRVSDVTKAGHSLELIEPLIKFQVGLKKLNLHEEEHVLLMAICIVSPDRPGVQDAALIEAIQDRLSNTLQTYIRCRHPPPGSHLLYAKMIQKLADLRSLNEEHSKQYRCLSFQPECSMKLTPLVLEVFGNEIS

[3] = biological target: T1, thyroid receptor-beta (TRβ), synthesized in vitro; test: immunoprecipitation and gel mobility shift (figure legend)
[4] = biological target: T2, vitamin D receptor (VDR), synthesized in vitro; test: as above
[5] = biological target: T3, truncated RAR protein consisting of only the C-terminal region of RAR (UniProt P10276); test: co-immunoprecipitation with RXR antiserum, 35S-labeled truncated RAR
T3 sequence (looked up): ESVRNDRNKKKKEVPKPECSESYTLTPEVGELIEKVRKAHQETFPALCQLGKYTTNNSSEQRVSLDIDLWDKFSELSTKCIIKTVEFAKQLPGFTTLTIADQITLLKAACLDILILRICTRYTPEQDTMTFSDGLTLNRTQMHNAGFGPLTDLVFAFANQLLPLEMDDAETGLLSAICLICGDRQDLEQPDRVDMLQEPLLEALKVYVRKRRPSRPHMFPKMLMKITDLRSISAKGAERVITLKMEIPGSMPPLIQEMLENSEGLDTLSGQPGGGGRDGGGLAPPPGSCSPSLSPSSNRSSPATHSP

binding [1]: binds
binding [2]: binds
binding [3]: binds
binding [4]: binds
binding [5]: binds
B1: RXR-glutathione-S-transferase fusion protein (hRXRα expressed in bacteria as a fusion with glutathione-S-transferase, pGEX-2T) (receptor, human, UniProt P19793 1-462, looked up)
chain: MDTKHFLPLDFSTQVNSSLTSPTGRGSMAAPSLHPSLGPGIGSPGQLHSPISTLSSPINGMGPPFSVISSPMGPHSMSVPTTPTLGFSTGSPQLSSPMNPVSSSEDIKPPLGLNGVLKVPAHPSGNMASFTKHICAICGDRSSGKHYGVYSCEGCKGFFKRTVRKDLTYTCRDNKDCLIDKRQRNRCQYCRYQKCLAMGMKREAVQEERQRGKDRNENEVESTSSANEDMPVERILEAELAVEPKTETYVEANMGLNPSSPNDPVTNICQAADKQLFTLVEWAKRIPHFSELPLDDQVILLRAGWNELLIASFSHRSIAVKDGILLATGLHVHRNSAHSAGVGAIFDRVLTELVSKMRDMQMDKTELGCLRAIVLFNPDSKGLSNPAEVEALREKVYASLEAYCKHKYPEQPGRFAKLLLRLPALRSIGLKCLEHLFFFKLIGDTPIDTFLMEMLEAPHQMT
notes: GST placed N-terminal as in pGEX-2T vectors; also called RXR-GST; GST-RXR; not shown: glutathione-S-transferase encoded by the pGEX-2T expression vector
